Screening data, single-dose tests

The chains behind the UniProt entries cited, without tags or fusion partners. Residues count along the entry.
UniProt Q4DA54, 1-478: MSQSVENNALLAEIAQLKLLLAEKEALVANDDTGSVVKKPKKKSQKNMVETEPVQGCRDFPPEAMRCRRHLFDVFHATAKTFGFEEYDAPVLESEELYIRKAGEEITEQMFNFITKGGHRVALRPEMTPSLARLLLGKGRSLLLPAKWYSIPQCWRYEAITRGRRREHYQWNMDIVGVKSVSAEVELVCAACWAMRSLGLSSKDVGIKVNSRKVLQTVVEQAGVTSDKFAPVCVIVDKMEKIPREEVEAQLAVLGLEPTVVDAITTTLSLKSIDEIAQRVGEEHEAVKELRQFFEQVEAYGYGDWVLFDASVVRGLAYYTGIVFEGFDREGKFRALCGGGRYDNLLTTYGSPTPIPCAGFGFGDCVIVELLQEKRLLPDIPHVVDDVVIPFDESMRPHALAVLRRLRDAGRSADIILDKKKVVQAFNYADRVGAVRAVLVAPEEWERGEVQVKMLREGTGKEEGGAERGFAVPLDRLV
UniProt Q8IDJ8, 1-583: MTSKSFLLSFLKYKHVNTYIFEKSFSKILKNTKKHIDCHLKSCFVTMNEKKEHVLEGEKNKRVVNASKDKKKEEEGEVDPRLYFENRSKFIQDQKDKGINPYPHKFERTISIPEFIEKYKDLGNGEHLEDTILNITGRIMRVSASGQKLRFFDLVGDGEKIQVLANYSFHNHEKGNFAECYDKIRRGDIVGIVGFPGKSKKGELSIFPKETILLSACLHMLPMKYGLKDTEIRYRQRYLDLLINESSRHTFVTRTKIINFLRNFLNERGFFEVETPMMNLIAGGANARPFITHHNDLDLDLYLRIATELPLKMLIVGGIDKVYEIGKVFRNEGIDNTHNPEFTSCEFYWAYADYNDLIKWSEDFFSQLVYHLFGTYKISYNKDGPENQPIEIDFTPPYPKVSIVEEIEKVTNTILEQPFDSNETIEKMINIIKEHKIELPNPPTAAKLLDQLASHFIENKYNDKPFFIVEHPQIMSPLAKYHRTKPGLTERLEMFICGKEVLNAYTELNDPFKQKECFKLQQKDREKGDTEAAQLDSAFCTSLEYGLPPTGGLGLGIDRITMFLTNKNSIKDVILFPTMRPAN

Data taken from ChEMBL document CHEMBL3988442, “University of Dundee, Small-Polar-MMV Screening Library” (2021).

TcHisRS: 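Histidine-tRNA ligase, Trypanosoma cruzi CL Brener (UniProt Q4DA54). Enzyme assay of histidyl-tRNA synthetase; the read-out is not stated. Compounds at 30 µM. The record gives no direction; compounds that gave an IC50 in retests scored well above the rest, so higher reads as stronger inhibition. Of about 69,000 compounds tested this way, about 31 (0.045%) reached 50% or more in at least one test.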
PfKRS1: 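Enzyme assay of the cytosolic lysyl-tRNA synthetase in 384-well plates, read by luminescence. Target: Lysine-tRNA ligase, Plasmodium falciparum 3D7 (UniProt Q8IDJ8). Tested at 30 µM. Higher reads as stronger inhibition, judged from the few compounds that gave an IC50. Of about 69,000 compounds tested this way, about 49 (0.071%) reached 50% or more in at least one test.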

Results are given as percent effect. How 0% and 100% were set is not recorded. Most values in the screen are low, and negative values occur. This is an unselected part of the compounds tested.

| # | compound | TcHisRS | PfKRS1 |
|---|---|---|---|
| 1 | `Cc1cc(C[S+]([O-])CC(=O)NCC(C)C)no1` (configuration not stated) | 3.817% | 2.91% |
| 2 | `CCc1nc(C(=O)N(C)CC(=O)N(C)C)nn1-c1ccccc1Cl` | 3.097% | 2.235% |
| 3 | `CCC(NC(=O)C1CCN(S(C)(=O)=O)CC1)c1ccc(OC)cc1` (configuration not stated) | 3.139% | 1.843% |
| 4 | `Cn1ncc2c(N3CCN(CCC(N)=O)CC3)nc(C3CCCC3)nc21` | -2.97% | -1.123% |
| 5 | `CC(C)Cn1cc(NC(=O)NCC2CCN(c3ccccc3)C2)cn1` (configuration not stated) | 6.186% | 1.699% |
| 6 | `Cc1cc(OCC(=O)NC(C)c2ccc(N3CCOCC3)cc2)no1` (configuration not stated) | -1.674% | 0% |
| 7 | `COc1ccc(C(=O)N(C)Cc2ncc(C)c(OC)c2C)c(OC)c1` | 5.042% | 5.192% |
| 8 | `COCCC(=O)N1CCCC2(CCN(c3ccccc3)C2=O)C1` (configuration not stated) | -49.51% | 8.324% |
| 9 | `O=C(c1cccnc1O)N1CCN(CCc2cccs2)CC1` | 6.158% | 0.5957% |
| 10 | `CC(=O)N1N=C(c2ccccc2)OC1C(=O)NCCN(C(C)C)C(C)C` (configuration not stated) | 9.091% | 2.201% |
| 11 | `C=Cc1ccc(CN2C(=O)C3(CCNCC3)Nc3ccccc32)cc1` | 2.4% | 5.263% |
| 12 | `Cc1cnn(C2CN(C(C)c3nc(-c4ccccc4)no3)C2)c1` (configuration not stated) | -0.4926% | 5.791% |
| 13 | `Cc1cnc(N2CC[C@@H]3CN(Cc4ccncc4)CCO[C@@H]3C2)nc1` | 10.34% | -0.9126% |
| 14 | `CSCCC(=O)N1CCN(CC(C)(C)O)CC1` | 3.704% | -1.201% |
| 15 | `CCc1c(C(=O)N2CCC3(CCCN(CCO)C3=O)C2)csc1C` (configuration not stated) | 1.093% | 4.335% |
| 16 | `CCc1nc(CN(C)C2CCN(Cc3ccc(Cl)s3)C2)no1` (configuration not stated) | -1.205% | 7.576% |
| 17 | `Cc1ccn(-c2ccccc2NCc2ncc[nH]2)n1` | -1.653% | -0.5912% |
| 18 | `CCCc1nnsc1C(=O)NCC1CCN(C(=O)c2ccncc2)CC1` | 3.061% | 2.664% |
| 19 | `Cc1ncc(C(=O)N2CCC(N3CCc4ccccc4C3)CC2)c(O)n1` | -16.23% | 3.199% |
| 20 | `O=C(c1cccn1Cc1cccs1)N1CCC(C(=O)N2CCCC2)CC1` | 4.571% | 0.9682% |
| 21 | `N#CCC(=O)NCc1nnc2n1CCN(Cc1ccsc1)C2` | 1.227% | 4.032% |
| 22 | `COCCCC(=O)N(C)c1ccc(F)c(Cl)c1` | 6.077% | -0.6658% |
| 23 | `Cc1occc1CN(C)C(=O)Nc1ccc(=O)n(C)c1` | 7.514% | 26.24% |
| 24 | `COCCCN1Cc2cccc(NC(=O)c3ccccc3Cl)c2C1` | 3.333% | -6.336% |
| 25 | `N#Cc1ccc(NC2CCN(c3ncccn3)CC2)cc1Cl` | 9.184% | 3.875% |
| 26 | `Cc1noc(CN2Cc3ccccc3CC2c2nnc(C)o2)n1` (configuration not stated) | 1.887% | 4.752% |
| 27 | `CC(=O)N1CCN(C(=O)NCCc2ccc(Cl)s2)CC1` | 3.38% | 1.393% |
| 28 | `Cc1ccc(C(CNCc2ccncc2)N2CCOCC2)s1` (configuration not stated) | 1.604% | 2.228% |
| 29 | `CCS(=O)(=O)c1ncc(CN(C)Cc2ccccn2)n1CCOC` | 1.653% | 3.571% |
| 30 | `NC(=O)c1cccc(OCC(=O)N2CCCC(n3ccnc3)C2)c1` (configuration not stated) | 2.907% | 1.028% |
| 31 | `c1ccc(CN2CC[C@H]3[C@H]2CCN3c2ncccn2)nc1` | 2.151% | -0.128% |
| 32 | `COc1cccc(CN(C)Cc2ccc(C#N)cc2)c1OC` | 0.5348% | 4.781% |
| 33 | `Cc1ccc(CN2CCn3c(CN(C)C(C)C)cnc3C2)s1` | 9% | 0.2919% |
| 34 | `CN(C)CCN1Cc2ncn(C)c2C(COCC(=O)N(C)C)C1` (configuration not stated) | 1.869% | 1.25% |
| 35 | `CCN(CC(=O)NC1(C)CCS(=O)(=O)C1)Cc1ccc(OC)c(F)c1` (configuration not stated) | 2.825% | 0.3152% |
| 36 | `Cc1ccc(C(=O)NS(C)(=O)=O)cc1I` | 0% | -1.74% |
| 37 | `Cc1nc(C)n(CC2CCCN2CCC(=O)NC2CCCC2)n1` (configuration not stated) | 8.069% | 3.107% |
| 38 | `CCn1nc(C)c2c1cnn2CC(=O)Nc1ccc(OC)cc1C` | 7.921% | -3.698% |
| 39 | `COCCN(CCOC)c1nc2c(s1)c(C)nn2C` | 6.667% | 4.822% |
| 40 | `CNc1nc(C(=O)N2CCC3(CCCN(C)C3=O)C2)cs1` (configuration not stated) | 7.843% | 7.271% |
| 41 | `COCC(=O)N1C[C@@H](O)[C@H](N2CCN(c3ccccc3)CC2)C1` | 4.545% | 1.245% |
| 42 | `CCc1nccc(CN2CCC(CNC(=O)[C@H]3CC[C@H](C)CC3)C2)n1` (some centres not stated) | -3.518% | 4.964% |
| 43 | `Cc1ccc(N2CCCC(NCc3cccs3)C2)nn1` (configuration not stated) | 3.198% | 0.3458% |
| 44 | `CN(C)C(C(=O)N1CCC(CCO)CC1)c1ccccc1F` (configuration not stated) | 1.058% | -2.981% |
| 45 | `COCCCn1ccc(NS(=O)(=O)c2cc(C)c(F)cc2F)n1` | 6.098% | 2.445% |
| 46 | `CNC(=O)CCNC(=O)c1cc(C)n(-c2cccc(OC)c2)c1C` | 4% | 2.328% |
| 47 | `CN(C)CCN1CC(C(=O)N2CCC(c3cc(=O)[nH]cn3)CC2)CC1=O` (configuration not stated) | 3.415% | -0.1731% |
| 48 | `CCc1nc2c(c(NC3CC3)n1)CCN(C(=O)Cc1nonc1C)CC2` | 1.288% | 3.442% |
| 49 | `COC(=O)[C@H]1C[C@@H](O)CCN1S(=O)(=O)c1cc(Cl)ccc1OC` | 10.84% | 2.448% |
| 50 | `COc1cccc(CNCCc2cc(F)cc3c2OCOC3)c1OC` | 3.125% | 4.1% |
| 51 | `O=C(Cc1c[nH]c2ncccc12)NCC(O)c1ccsc1` (configuration not stated) | 5.155% | 3.247% |
| 52 | `CCc1nc(CCNC(=O)NC2CCSCC2)cs1` | 3.191% | 0.2739% |
| 53 | `CCn1cc(C(=O)N2CCCC3(CCC(=O)N(CCC(C)C)C3)C2)cn1` (configuration not stated) | 1.064% | -0.8454% |
| 54 | `CCc1nc(C)c(C(=O)NCCNC(=O)c2cccs2)s1` | -1.156% | -0.291% |
| 55 | `Cc1cc(C)cc(NS(=O)(=O)c2cc3c(c(C(=O)O)c2)OCCO3)c1` | 4.135% | 3.702% |
| 56 | `Cc1noc(C[C@@H]2COC[C@H]3CN(S(=O)(=O)C4CC4)C[C@@H]23)n1` | 0.5348% | 3.252% |
| 57 | `COCCC(=O)NCCc1nc2cc(-c3ccc(OC)cc3)ncn2n1` | 3.955% | 1.222% |
| 58 | `O=C(Nc1cccnc1)c1ccc(-n2cncn2)nn1` | 0% | -3.814% |
| 59 | `COC(=O)c1ccc(S(=O)(=O)NCc2cccnc2N(C)C)cc1` | 4.511% | 5.748% |
| 60 | `CN1CC(=O)N(c2ccccc2)CC12CCN(Cc1nccn1C)C2` (configuration not stated) | 10.75% | 1.228% |
| 61 | `CCOc1ncccc1NC(=O)Nc1c(C)nn(C(C)C)c1C` | 1.667% | 9.766% |
| 62 | `CCNC(=O)C1(Cc2cc(-c3ccccc3)no2)CCCN(C)C1` (configuration not stated) | 3.448% | 0.7779% |
| 63 | `COCCN1CC(C(=O)N(C)Cc2ccc(Cl)s2)CC1=O` (configuration not stated) | 0% | 0.4931% |
| 64 | `O=S(=O)(N1CCCC1)N1CCN(CC2CCCO2)CC1` (configuration not stated) | 3.627% | 1.421% |
| 65 | `Cc1ccccc1OCCC(=O)N1CCC(c2nncn2C)CC1` | 6.34% | 0.2671% |

Some entries from above, unchanged:

compound,TcHisRS,PfKRS1
O=C(c1cccn1Cc1cccs1)N1CCC(C(=O)N2CCCC2)CC1,4.571%,0.9682%
COCCN1CC(C(=O)N(C)Cc2ccc(Cl)s2)CC1=O (configuration not stated),0%,0.4931%
Cc1cc(OCC(=O)NC(C)c2ccc(N3CCOCC3)cc2)no1 (configuration not stated),-1.674%,0%
COCCC(=O)NCCc1nc2cc(-c3ccc(OC)cc3)ncn2n1,3.955%,1.222%
CC(=O)N1N=C(c2ccccc2)OC1C(=O)NCCN(C(C)C)C(C)C (configuration not stated),9.091%,2.201%
COC(=O)c1ccc(S(=O)(=O)NCc2cccnc2N(C)C)cc1,4.511%,5.748%
CCc1nc(C)c(C(=O)NCCNC(=O)c2cccs2)s1,-1.156%,-0.291%